This is one part of the list. The main result of the screen is listed elsewhere. These columns were measured beside it and carry no call. Most of these compounds were active or inconclusive in the main read-out, so they are no random draw. Words in brackets tell the shape of the fitted curve; partial curves, single points and poor fits give uncertain potencies.
Test: qHTS Assay to Find Inhibitors of Chronic Active B-Cell Receptor Signaling
Conditions: ABC-DLBCL IkBa-CBG/CBR reporter, luminescence ratio (green luciferase fused to IkBa over red control in TMD8 lymphoma cells), 4 h
In short: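 Cell line TMD8 (human ABC DLBCL), stably expressing tet-inducible CBG68-IkBa fusion and CBR; IMDM/0.5% FBS; cpd up to 46 uM; dox induction, 4 h, 37C/5% CO2; dual luminescence; green/red ratio; MG132 control.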

[1] = measured here: CBR red luminescence, cell number
[2] = measured here: IkBa-CBG green luminescence

| Compound | AC50 [1] | AC50 [2] |
| --- | --- | --- |
| O=c1[nH]c(O)c(C=Nc2ccc(Cl)cc2Cl)c(=O)[nH]1 | 0.282 µM [rising, full curve, poor fit] |  |
| O=C(NCC(=O)N1CCc2ccccc2C1)c1ccccc1Cl | 15.8 µM [falling, partial curve, poor fit] |  |
| Cc1c(C(=O)NC(=S)NCc2cccnc2)oc2ccccc12 | 5.01 µM [rising, partial curve, poor fit] |  |
| COc1ccc(C(=O)Nc2ncc(C)s2)cc1S(=O)(=O)N1CCCC1 | 4.47 µM [falling, partial curve, poor fit] |  |
| O=C(NCc1ccccc1F)C1CCCN1C(=O)Nc1ccc(Cl)cc1 (stereo unspecified) | 3.55 µM [falling, single point] |  |
| Brc1ccccc1C1=Nn2c(nnc2-c2ccccc2)SC1 | 22.4 µM [falling, single point] |  |
| C=COC(=O)c1sc2nc(C)cc(C)c2c1N | 2.51 µM [falling, partial curve, poor fit] |  |
| C/C(=N\Nc1nc2ccccc2[nH]1)c1ccc2c(c1)OCO2 | 12.6 µM [falling, single point] |  |
| CCN(CC)C(=O)OCc1c(-c2ccccc2)ncc2ccccc12 | 29.1 µM [rising, single point] |  |
| O=C(Nc1cccc2ncccc12)c1ccc([N+](=O)[O-])o1 | 10 µM [falling, partial curve] |  |
| Cc1cc(O)ccc1Nc1nc(-c2cccnc2)cs1 |  | 10 µM [falling, partial curve, poor fit] |
| COc1ccc(N(CC(=O)Nc2nc3ccc(C)cc3s2)S(=O)(=O)c2c(C)nn(C)c2C)cc1 | 1.03 µM [falling, full curve] |  |
| CC1=NNC(=O)C1CCC(=O)N/N=C/c1ccc(Cl)cc1 (stereo unspecified) | 11.2 µM [falling, partial curve] |  |
| CCCCN1C(=O)C(=O)c2cc(Cl)ccc21 |  | 16.4 µM [falling, single point] |
| O=C(CSc1nnc(-c2cccs2)n1-c1ccccc1)N1CCN(C(=O)c2ccco2)CC1 | 25.1 µM [falling, single point] |  |
| COc1ccc(OC)c(/C=C/C(=O)N(C)CC(=O)Nc2ccc(N3CCOCC3)cc2)c1 | 16.4 µM [rising, partial curve, poor fit] |  |
| Cc1c(O)ccc(/C(Cc2ccc3ccccc3n2)=N\O)c1O | 15.8 µM [falling, partial curve, poor fit] |  |
| CCC(C)[C@H](NC(=O)Nc1ccc2c(c1)OCCO2)C(=O)OC (stereo partly specified) | 15.8 µM [rising, single point] |  |
| COc1ccc([C@@H]2CC(=O)c3c(O)cc(O[C@@H]4O[C@H](CO[C@@H]5O[C@@H](C)[C@H](O)[C@@H](O)[C@H]5O)[C@@H](O)[C@H](O)[C@H]4O)cc3O2)cc1O | 8.91 µM [rising, partial curve, poor fit] |  |
| COc1cc(C)c(Br)cc1S(=O)(=O)N1CCOCC1 | 16.4 µM [rising, single point] |  |

Single records (already shown):
`COc1cc(C)c(Br)cc1S(=O)(=O)N1CCOCC1` is listed as AC50 [1]: 16.4 µM [rising, single point]
`O=C(NCc1ccccc1F)C1CCCN1C(=O)Nc1ccc(Cl)cc1` (stereo unspecified) is listed as AC50 [1]: 3.55 µM [falling, single point]

More structures:

| Compound | AC50 [1] | AC50 [2] |
| --- | --- | --- |
| O=C(NC1CCCCCCC1)NC1CCCCC1 | 35.5 µM [falling, single point] |  |
| BrC(=C\c1ccccc1)/C=N/N1CCN(c2ccccn2)CC1 | 0.731 µM [rising, full curve, poor fit] |  |
| O=C(C(=O)N1CCc2ccccc2C1)c1c[nH]c2ccccc12 | 0.708 µM [rising, partial curve, poor fit] |  |
| CC(=O)N(CCC(Cc1ccccc1)c1ccco1)Cc1ccco1 (stereo unspecified) | 3.55 µM [falling, partial curve, poor fit] |  |
| Clc1cccc(N2CCN(Cc3nnc(-c4ccccc4)o3)CC2)c1 | 6.31 µM [falling, partial curve, poor fit] |  |
| Cc1ccccc1NC(=O)c1ccc(NC(=O)C2CC(=O)OC23CCCCC3)cc1 (stereo unspecified) | 20 µM [falling, single point] |  |
| COc1ccc(C(=O)NCCNc2nc3c(C)cccc3cc2C#N)cc1OC | 1.12 µM [rising, full curve] |  |
| CCOC(=O)c1cnc2ccc(C)cc2c1Nc1ccc(N2CCOCC2)cc1 | 18.4 µM [falling, partial curve, poor fit] |  |
| O=C(OCC(=O)N1CCOCC1)c1ccc2ccccc2c1O | 6.51 µM [falling, partial curve] |  |
| CCOC(=O)C1CCN(C(=O)c2cc3c(=O)n4cccc(C)c4nc3s2)CC1 | 3.16 µM [falling, partial curve] |  |
| COc1ccc(NC(=O)CN(C)C(C)C(=O)N2CCCCC2)cc1 (stereo unspecified) | 0.146 µM [rising, full curve, poor fit] |  |
| CCCOc1cccc(-c2nnc(NC(=O)c3ccco3)s2)c1 | 6.31 µM [falling, partial curve, poor fit] |  |
| O=C1/C(=C/c2ccco2)SC(=S)N1C1CCS(=O)(=O)C1 (stereo unspecified) | 35.5 µM [falling, single point] |  |
| Cc1cccc(-c2nn(-c3ccccc3)cc2C(=O)NCC(c2cccs2)N2CCOCC2)c1 (stereo unspecified) | 0.103 µM [rising, full curve, poor fit] |  |
| CCOC(=O)[C@H]1[C@H]2COc3ccc(Cl)cc3[C@@H]2N2C(=O)c3cc(OC)ccc3NC(=O)[C@@]12C | 20.6 µM [falling, partial curve] | 16.4 µM [rising, partial curve, poor fit] |
| CCn1c(C)cc(C=C2C(=O)c3ccccc3C2=O)c1C | 35.5 µM [falling, single point] |  |
| O=C(CCCC(=O)OCC(Cl)=C(Cl)Cl)Nc1cccc(F)c1 | 11.2 µM [falling, single point] |  |
| Cn1c(=O)c(C(=O)NNC(=O)c2cccc(Cl)c2)c(O)c2ccccc21 | 1.58 µM [falling, full curve] |  |
| O=C(NCc1ccccc1C(F)(F)F)C1CC(c2ccccc2[N+](=O)[O-])=NO1 (stereo unspecified) | 2.82 µM [falling, single point] |  |
| O/N=C/c1ccc(OCc2ccccc2)c(Cl)c1 | 2.06 µM [rising, full curve] |  |
